Reference: PubChem BioAssay AID652054 (National Center for Advancing Translational Sciences (NCATS), 2013)
Out of some 360,000 compounds screened, about 9,100 (2.5%) were called active. Inconclusive means that the source gave no clear call. Such entries were picked first, then a sample of the others. Rule as the data show it: active = max response below about -50%; inconclusive = no clear call, values can overlap the other calls; inactive = above that.

The chains behind the UniProt entries cited, without tags or fusion partners.
UniProt P35462, whole entry, looked up: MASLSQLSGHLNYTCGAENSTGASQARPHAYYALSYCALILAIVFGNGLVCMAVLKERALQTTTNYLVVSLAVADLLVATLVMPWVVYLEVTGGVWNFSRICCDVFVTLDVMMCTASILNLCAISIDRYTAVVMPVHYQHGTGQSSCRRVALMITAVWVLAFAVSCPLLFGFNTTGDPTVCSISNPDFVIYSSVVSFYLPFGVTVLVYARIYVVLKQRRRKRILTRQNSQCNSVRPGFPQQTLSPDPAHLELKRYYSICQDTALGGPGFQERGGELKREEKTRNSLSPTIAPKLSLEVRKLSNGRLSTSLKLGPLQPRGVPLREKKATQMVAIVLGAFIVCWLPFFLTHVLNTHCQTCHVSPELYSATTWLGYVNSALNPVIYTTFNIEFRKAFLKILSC

molecular target: D(3) dopamine receptor (Homo sapiens) (UniProt P35462); assay: qHTS of D3 Dopamine Receptor Antagonist: qHTS; conditions: D3R cells, DiscoveRx beta-arrestin luminescence, antagonist mode; hits give low values
Summary of the method: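 Cells expressing the human receptor were seeded at 1500 cells/well, incubated overnight at 37 degrees C in 5% CO2, then exposed to library compounds with dopamine controls for 90 minutes at 37 degrees C before luminescent detection.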
% is scaled to controls: 0 for no effect and ±100 for the full control effect.

| Compound | max response, negative = inhibition |
| --- | --- |
| Cc1ccc(C2CC2C(=O)NNC(=S)Nc2cccc(Cl)c2)cc1 (centres undefined) | inconclusive: -36.5% |
| Nc1nc2c(Br)ccc(Br)c2cc1C(=O)NCCc1ccccc1 | inconclusive: -40.1% |
| Cc1c(C)n(Cc2ccccc2)c2ncnc(NCCN(C)C)c12 | inconclusive: -31.7% |
| COc1cccc(C(=O)N/N=C/c2ccc(OC3CSC3)cc2)c1 | inconclusive: -46.4% |
| CCCCCc1c(O)nc(SCCN(CC)CC)[nH]c1=O | inconclusive: -30.5% |
| O=C1C=C(c2cccc(Cl)c2O)C[C@@H](c2ccc(F)cc2)C1 | active: -58.3% |
| Cc1cccc(NC(=O)Oc2ccc(Cl)c3cccnc23)c1 | active: -120% |
| NC(=S)N=Nc1c(O)n(Cc2ccc(Br)cc2)c2ccccc12 | inconclusive: -34.2% |
| CCN1CCN(CCOc2ccccc2-c2ccccc2)CC1 | inconclusive: -46.1% |
| CN(C(=O)c1cc(COc2ccc(F)cc2Cl)on1)C1CCOC1 (centres undefined) | inactive: 28.3% |
| Cc1ccc(-n2nnc(-c3cccnc3)n2)cc1 | inconclusive: -30.4% |
| Oc1ccc(N2CCN(Cc3cc4c(cc3Br)OCCO4)CC2)cc1 | active: -86.5% |
| COc1ccccc1N1CCN(CC(=O)c2c(C)[nH]c3ccccc23)CC1 | inconclusive: -37.2% |
| C1CCC(OCCN2CCN(CCOC3CCCCC3)CC2)CC1 | active: -63% |
| COc1ccc(C=NCC2COc3ccccc3O2)cc1OC (centres undefined) | active: -51% |
| O=C(CCC1CCCCC1)Nc1ccc(C(=O)c2ccncc2)cc1 | inconclusive: -30% |
| COc1ccc(CC(=O)Nc2ccc(S(=O)(=O)N3CCN(C)CC3)cc2)cc1 | inactive: -0.883% |
| O=C(c1cccc(C(F)(F)F)c1)N1CCN(C2CCCCC2)CC1 | inconclusive: -34.6% |
| CC1(CCc2ccccc2)NC(=O)N(CC(=O)N2CCCCCC2)C1=O (centres undefined) | inconclusive: -48.7% |
| Cc1ccc(NC(=O)CCC(=O)N2CCN(S(=O)(=O)c3ccc(C)cc3)CC2)cc1 | inconclusive: -33.4% |
| CN1C2CCC1CC(NS(=O)(=O)c1cccc(C(F)(F)F)c1)C2 (centres undefined) | inactive: 2.47% |
| CCC(C)NCCOCCOc1ccc(C)cc1Br (centres undefined) | active: -70.4% |
| OCC1(Cc2ccccc2)CCN(Cc2cnn(-c3ccccc3F)c2)CC1 | inconclusive: -46% |

| Compound | max response, negative = inhibition |
| --- | --- |
| CC(Nc1nc(-c2ccc(F)cc2)cs1)c1nc2cc(Cl)c(N3CCCCC3)cc2n1CCCO (centres undefined) | inconclusive: -30.4% |
| COc1ccc(N(C(=O)c2ccco2)S(=O)(=O)c2ccc(F)cc2)cc1 | inconclusive: -42.8% |
| CCCN1C(=O)/C(=C/c2c(NCCCOCC)nc3c(C)cccn3c2=O)SC1=S | inactive: 2.6% |
| C=CCN(C(=O)CCC(=O)Nc1cc(C)on1)C(C(=O)NC1CCCC1)c1ccc(C)cc1 (centres undefined) | inconclusive: -32.6% |
| Cc1cc(Nc2ccccc2)n(-c2ccccc2)n1 | inconclusive: -35.2% |
| O=[N+]([O-])c1ccc(CSc2ccc(S(=O)(=O)N3CCCCC3)cn2)cc1 | inconclusive: -44.9% |
| NC(=O)C1CCN(C(=O)NC2CC(=O)N(c3ccc4c(c3)OCCO4)C2)CC1 (centres undefined) | inconclusive: -40.8% |
| Cc1cc(Cl)ccc1OCC(=O)OCC(=O)N(CC(C)C)c1c(N)n(Cc2ccccc2)c(=O)[nH]c1=O | inconclusive: -44.1% |
| CC1CC=C2C(C#N)=C(N)C(C#N)(C#N)C(c3cccs3)C2C1 (centres undefined) | inconclusive: -46.8% |
| CCOC(=O)N1CCN(c2ccccc2OC)CC1 | inactive: 4.38% |
| O=C(NCc1ccccc1)C(=O)NCC1OCCN1S(=O)(=O)c1ccc([N+](=O)[O-])cc1 (centres undefined) | inactive: 7.88% |
| O=C(/C=C/c1ccc([N+](=O)[O-])cc1)c1ccco1 | inconclusive: -46.4% |
| CN(CC(=O)Nc1c(Cl)cccc1Cl)C(=O)Cc1ccsc1 | inconclusive: -38.2% |
| COc1cc(/C=C(/C(=O)c2cccs2)c2nc3ccccc3[nH]2)cc(OC)c1O | active: -99.9% |
| Cc1nn(CC(=O)Nc2ccc3c(c2)nc(CN2CCCC2)n3C)c(=O)c2ccccc12 | inconclusive: -40.9% |
| COc1cccc(/C=N/NC(=O)CN(C)S(=O)(=O)c2ccccc2)c1OC | inconclusive: -39.7% |
| COc1ccc(C(CNC(=O)c2cc3ccccc3cc2O)N2CCOCC2)cc1 (centres undefined) | inconclusive: -36.7% |
| O=C(CSc1nc2ccccc2o1)Nc1nc(-c2ccccc2)c(-c2ccccc2)s1 | inactive: -25.1% |
| c1ccc(COc2ccc(OCCCN3CCCC3)cc2)cc1 | inconclusive: -34.8% |
| COc1cc2c(cc1OC)CN(CC(=O)Nc1cccc(C(F)(F)F)c1)CC2 | inconclusive: -42.1% |
| Cc1ccc(Cn2c(=O)n(Cc3ccco3)c(=O)c3ccccc32)cc1 | inconclusive: -35% |
| Cn1cnnc1-c1cccc(NS(=O)(=O)c2ccc(N3CCCC3=O)cc2)c1 | inconclusive: -44.9% |
| CC(NC(=O)/C(C#N)=C/c1ccc(OCC(=O)O)cc1)c1ccccc1 (centres undefined) | inactive: -20.1% |

A draw from above in order of length of the SMILES, falling.

| Compound | max response, negative = inhibition |
| --- | --- |
| O=C(CSc1nc2ccccc2o1)Nc1nc(-c2ccccc2)c(-c2ccccc2)s1 | inactive: -25.1% |
| CC(NC(=O)/C(C#N)=C/c1ccc(OCC(=O)O)cc1)c1ccccc1 (centres undefined) | inactive: -20.1% |
| Cc1cccc(NC(=O)Oc2ccc(Cl)c3cccnc23)c1 | active: -120% |

Next part.

| Compound | max response, negative = inhibition |
| --- | --- |
| O=C1CC(c2ccccc2)Cc2nc3nc(C(F)(F)F)nn3cc21 (centres undefined) | inactive: -12.1% |
| CC1=NN(c2ccccc2)C(=O)/C1=C/c1c(O)n(-c2ccc(F)cc2)[nH]c1=O | inconclusive: -36% |
| O=[N+]([O-])c1cc2oc3c(c2c(C=NCc2ccncc2)c1O)CCCC3 | inconclusive: -36.2% |
| Cc1cc2c(cc3c(=O)n(CC(=O)NCCCN4CC(C)CC(C)C4)ncn32)s1 (centres undefined) | inconclusive: -32% |
| COc1cccc(C(=O)N2CCN(c3ccc(N4CCOCC4)nn3)CC2)c1 | inconclusive: -30.3% |
| COCCn1c(SCc2ccc(OC)c(F)c2)nnc1-c1ccncc1 | inactive: -9.68% |
| Cc1cc2c(c(N3CCOCC3)n1)C(=O)OC2 | inconclusive: -39.6% |
| O=[N+]([O-])c1cc(Br)c(Nc2ccccc2)c([N+](=O)[O-])c1 | inconclusive: -45.3% |
| COc1ccc(C2CC3(CC(C)(C)NC(=S)N3)Oc3cc(O)cc(C)c32)cc1 (centres undefined) | inactive: -10.2% |
| O=C(CN1CCN(c2ccc(F)cc2)CC1)Nc1cccc(C(F)(F)F)c1 | inconclusive: -44.8% |
| C=C1CCC[C@]2(C)C[C@H]3OC(=O)C(CN4CCCCC4CO)[C@H]3CC12 (some centres undefined) | inconclusive: -30.2% |
| CN(C)S(=O)(=O)c1cccc(N=C2NN=C(c3ccccc3)CS2)c1 | inactive: -2.35% |
| COCCCN1C(=O)C(=O)/C(=C(/O)c2ccc(S(=O)(=O)N3CCOCC3)cc2)C1c1ccc(C(C)C)cc1 (centres undefined) | inactive: -20% |
| COc1cccc(NC(=O)CN(C)C(=O)CCSc2ccc(C)cc2)c1 | inconclusive: -31.9% |
| Cc1ccc(NC(=O)CN2CCCN(S(=O)(=O)c3ccc(Br)s3)CC2)cc1 | inconclusive: -30% |
| O=C1CC(Sc2ccc(Cl)cc2)C(=O)N1c1ccc2c(c1)OCCO2 (centres undefined) | inactive: -5.44% |
| COc1ccc(N2CC(C)Cn3c2nc2c3c(=O)n(Cc3ccc(C)cc3)c(=O)n2C)c(OC)c1 (centres undefined) | inactive: 2.07% |
| COc1ccc(NC2c3ncccc3C(=O)N2Cc2ccccc2)c(OC)c1 (centres undefined) | inconclusive: -35.4% |
| Cc1ccc(SCCN2CCC(O)CCC2=O)cc1 (centres undefined) | inconclusive: -33.1% |
| COc1ccc(CN(C)S(=O)(=O)c2c(C)noc2C)cc1OC | inconclusive: -32.9% |
| S=C(NCCc1ccccc1)Nc1ccccc1 | inconclusive: -32.8% |
| COc1ccc(S(=O)(=O)N2CCOCC2)cc1N=Nc1sc(N)nc1-c1ccccc1 | inconclusive: -40% |
| O=c1c(-c2ccc3c(c2)OCCO3)c(C(F)(F)F)oc2cc(O)cc(O)c12 | inconclusive: -49.8% |

| Compound | max response, negative = inhibition |
| --- | --- |
| O=c1cc(-c2ccccc2)nc(N2CCN(Cc3ccc4c(c3)OCO4)CC2)[nH]1 | inconclusive: -44.6% |
| COc1ccc(CN2CCC3CC2c2cc(Cl)ccc23)cc1 (centres undefined) | active: -59.1% |
| O=C(/C=C/c1ccoc1)c1ccccc1O | inactive: 18.9% |
| COc1ccccc1N(C)S(=O)(=O)c1ccc(C(=O)NC2=NCCS2)cc1 | inconclusive: -37.5% |
| O=C(C=Cc1ccccn1)c1ccccc1 | inconclusive: -49.5% |
| CC(C)=CCC(C)(C)CNC(=O)NC1CCCCC1 | inactive: 0% |
| CN(CCCCCCCCC(=O)/C=N/O)Cc1ccccc1 | inconclusive: -37.6% |
| OC1(c2ccccc2)CN(c2ccccc2)C2=[N+]1CCS2 (centres undefined) | inactive: -5.47% |
| CCCN(CCC)CCNC(=O)c1cc2c(=O)n(C)c3ccccc3c2n1C | inconclusive: -45.7% |
| C=CCNC(=S)N(Cc1ccccc1)Cc1ccc(F)cc1 | inconclusive: -34.2% |
| OC(CN1CCN(c2ccccc2)CC1)c1c[nH]c2ccccc12 (centres undefined) | active: -54.3% |
| O=C(N/N=C/C=C/c1ccccc1)c1cc2c(ccc3ccccc32)o1 | inconclusive: -35% |
| COC(=O)c1cc(NS(=O)(=O)c2ccc(NCc3cccnc3)c([N+](=O)[O-])c2)cc(C(=O)OC)c1 | inconclusive: -43.8% |
| COc1cccc(NC2=NC3(CCCCC3)N=C(N)N2)c1 | inconclusive: -44% |
| CCOC(=O)C1CCCN(C/C=C/c2ccccc2)C1 (centres undefined) | inconclusive: -33.6% |
| CN1C(=O)c2ccccc2Sc2ccc(NC(=O)NC3CC3)cc21 | inconclusive: -38.7% |
| O=C(Nc1cccc(C(=O)N2CCCCCC2)c1)c1ccco1 | inconclusive: -32.8% |
| COc1ccc(CNC(=O)CN2C(=O)CSc3ccc(S(=O)(=O)N4CCCCC4)cc32)cc1 | inactive: -3.94% |
| CCCCN1CC[C@H]2C=CC[C@@H](C(=O)Nc3ccc(Cl)cc3Cl)[C@H]2C1=O | inconclusive: -31.9% |
| O=C(NC1CCCCC1)N(Cc1ccc(F)cc1)Cc1nc2ccccc2c(=O)[nH]1 | inactive: 4.21% |

Retrieved by compound from above, two records:

| Compound | max response, negative = inhibition |
| --- | --- |
| OC(CN1CCN(c2ccccc2)CC1)c1c[nH]c2ccccc12 (centres undefined) | active: -54.3% |
| COc1ccccc1N(C)S(=O)(=O)c1ccc(C(=O)NC2=NCCS2)cc1 | inconclusive: -37.5% |
